Drawing on patent publication US6136781A (Takeda Chemical Industries, Ltd., priority 1995, dated 2000), this text covers cyclisation yield and step yield for 89 substances.

Strings that start with PEPTIDE1 are HELM notation: dots part the residues, brackets hold end groups and non-standard residues. Square brackets hold non-standard residues; d marks the D form. * marks the point of attachment. Phe(4-Cl) = N[C@@H](Cc1ccc(Cl)cc1)C(=O)O; Phe(4-F) = N[C@@H](Cc1ccc(F)cc1)C(=O)O; 2Nal = N[C@@H](Cc1ccc2ccccc2c1)C(=O)O; Phg = N[C@H](C(=O)O)c1ccccc1; Tos = Cc1ccc(S(=O)(=O)*)cc1; BrZ = O=C(OCc1ccccc1Br)*; ClZ = O=C(OCc1ccccc1Cl)*; OPac = O=C(CO*)c1ccccc1; Boc = CC(C)(C)OC(=O)*

A short description of the data set: general procedure: solution-phase peptide synthesis; DCC/HONB (ONB active esters). The note with it: for cyclisation yield: cyclisation step.

Regarding cyclo(F[dR](Tos)F[dL]W), the cyclisation yield was 29.4%. Boc-[dK](Ac)Y(BrZ)[dW]LR(Tos)-OPac had a step yield (coupling step) of 62.9%. As for “Boc-Lys(Z, isopropyl)-D-Glu(NHCH2 CH2 Ph)-Tyr(Br-Z)-D-Lys(Nic)-Leu-O Pac”, for the setting “coupling step”, the step yield is 100%. The substance “cyclo(-D-Tyr-Arg(Tos)-D-Trp-Leu-D-Lys(SO2 Nap(1))-)” yielded a cyclisation yield of 16.9%. In the case of cyclo(F[dR](Tos)[Phe(4-Cl)][dA]W), the cyclisation yield came to 50.5%. Turning to “Boc-D-Glu(NHCH2 CH2 Ph)-Lys(COPh)-D-Trp-Phe-Arg(Tos)-OPac”, the step yield (coupling step) worked out at 100%.

Turning to “cyclo(-Arg-D-Glu(NHCH2 CH2 Ph)-Lys(COPh)-D-Trp-Leu-)”, the cyclisation yield came to 57.6%. “Boc-Arg(Tos)-D-Glu((2)-Pyp)-Tyr(Br-Z)-D-Trp-Leu-OPac”: the step yield (coupling step) stood at 100.0%. As for “cyclo(-Arg-D-Glu((2)-Pyp)-Tyr-D-Trp-Leu-)”, the cyclisation yield is listed as 12.1%. For Boc-Lys(COPh)-D-Trp-Phe-Arg(Tos)-OPac, the step yield (coupling step) is 60.5%.

Substance Boc-Y(BrZ)[dW]FR(Tos)-OPac registered a step yield (coupling step) of 91.2%.

As for “PEPTIDE1{F.R.F.[dA].W}$PEPTIDE1,PEPTIDE1,5:R2-1:R1$$$V2.0”, the step yield (late stage modification step) is on record as 63.0%. Turning to “Boc-Lys(SO2 Nap(1))-D-Tyr(Br-Z)-Arg(Tos)-D-Trp-D-Leu-OPac”, the step yield (coupling step) was 100%. With cyclo(F[dR][2Nal][dA]W), the step yield (late stage modification step) turned out to be 39.0%. Boc-D-Glu(Php)-Tyr(Br-Z)-D-Trp-Leu-OPac returned a step yield (coupling step) of 45.9%. Still for that read-out and setting: the figure for “Boc-D-Glu(NHCH2 CH2 Ph)-Tyr(Br-Z)-D-Lys(Nic)-Leu-OPac” is 58.5%. cyclo(F[dR](Tos)[Phe(4-F)][dA]W): the cyclisation yield stood at 65.6%. With “Boc-Arg(Tos)-Glu(Php)-Tyr(Br-Z)-D-Trp-Leu-O Pac”, the step yield (coupling step) came to 100.0%. On to “PEPTIDE1{A.[D-Arg(Tos)].F.[dA].W}$PEPTIDE1,PEPTIDE1,1:R1-5:R2$$$V2.0”, for which the cyclisation yield stood at 21.8%. Turning to “Boc-Arg(Tos)-Lys(SO2 Nap(2))-Tyr(Br-Z)-D-Trp-Leu-OPac”, the step yield (coupling step) was determined as 49.9%. Consider cyclo([Phe(4-F)][dR](Tos)F[dA]W), for which the cyclisation yield turned out to be 58.8%. Regarding “Boc-D-Lys(COCH2 Ph)-Tyr(Br-Z)-D-Trp-Leu-OPac”, the step yield (coupling step) was determined as 96.7%. With cyclo(Y[dW]LRWP), the cyclisation yield amounted to 15.3%. On to cyclo([Phe(4-Cl)]R[2Nal][dA]W), for which, for the setting “late stage modification step”, the step yield is recorded as 37%. For the setting “coupling step”, “Boc-D-Glu(NHCH2 CH2 Ph)-Tyr(Br-Z)-D-Trp-Leu-OPac” showed a step yield of 60.6%.

Turning to “cyclo(-Arg-Lys(SO2 Nap(2))-Tyr-D-Trp-Leu-)”, the cyclisation yield turned out to be 48.3%. With cyclo(-Arg-Glu(Php)-Tyr-D-Trp-Leu-), the cyclisation yield is reported as 22.7%. Consider cyclo(R[dW]Y[dW]L), for which the cyclisation yield was 11.5%.

The substance “cyclo(-Arg-D-Glu(NHCH2 Ph)-Tyr-D-Trp-Leu-)” showed a cyclisation yield of 27.1%. “Boc-D-Glu(Bzlp)-Tyr(Br-Z)-D-Trp-Leu-OPac” gave a step yield (coupling step) of 74.5%.

For the substance “cyclo(-D-Tyr-Arg-D-Trp-Leu-D-Lys(SO2 Nap(1))-)”, the cyclisation yield came to 54.3%. The same measure, in the same setting: the result for “cyclo(-Arg-D-Lys (COCH2 CH2 CH2 CH2 CH2 Ph)-Tyr-D-Trp-Leu-)” reads 26.8%.

Take “Boc-D-Lys(COCH2 CH2 CH2 CH2 CH2 Ph)-Tyr(Br-Z)-D-Trp-Leu-Arg(Tos)-OPac”: the step yield (coupling step) stood at 80.1%. The substance cyclo([Phg][dR](Tos)F[dS]W) came in with a cyclisation yield of 15.7%. Regarding “Cyclo(-Arg(Tos)-D-Glu(NHCH2 CH2 Ph)-Lys(Cl-Z)-D-Trp-Leu-)”, the cyclisation yield was 72.3%. On the same count and under the same terms, the result for cyclo(F[dR](Tos)F[dW]W) reads 83.0%. “Boc-Lys(Cl-Z)-D-Glu(Php)-Tyr(Br-Z)-D-Trp-Leu-OPac” came in with a step yield (coupling step) of 100.0%.

Substance Boc-[dY](BrZ)R(Tos)[dW][dL]-OPac returned a step yield (coupling step) of 69.1%. For the substance “PEPTIDE1{[Phg].[D-Arg(Tos)].F.[dA].W}$PEPTIDE1,PEPTIDE1,1:R1-5:R2$$$V2.0”, the cyclisation yield is 28.3%. cyclo([Phe(4-Cl)][dR](Tos)F[dA]W) displayed a cyclisation yield of 7.5%. Take cyclo(R[dK]Y[dW]L): the cyclisation yield was determined as 11.7%.

In the case of Boc-[dK](ClZ)Y(BrZ)[dW]LR(Tos)-OPac, the step yield (coupling step) came to 89.7%. In the case of “PEPTIDE1{[Phg].[D-Arg(Tos)].F.[dA].F}$PEPTIDE1,PEPTIDE1,1:R1-5:R2$$$V2.0”, the cyclisation yield worked out at 13.1%.

With “cyclo(-Arg-D-Lys(SO2 Nap(2))-Trp-D-Trp-Leu-)”, the cyclisation yield is 27.1%. “Boc-Arg(Tos)-D-Glu(NHCH2 Ph)-Tyr(Br-Z)-D-Trp-Leu-OPac”: the step yield (coupling step) came out at 79.6%. Same read-out and setting: the figure for “Boc-D-Glu(NHCH2 Nap(1))-Tyr(Br-Z)-D-Trp-Leu-OPac” is 43.5%. In the case of “cyclo(-Arg-D-Glu(NHCHPh2)-Tyr-D-Trp-Leu-)”, the cyclisation yield amounted to 26.1%. Regarding “Boc-D-Lys(COCH2 CH2 CH2 Ph)-Tyr(Br-Z)-D-Trp-Leu-Arg(Tos)-OPac”, the step yield (coupling step) stood at 73.4%.

Take cyclo(-Arg-D-Lys(COPh)-Tyr-D-Trp-Leu-): the cyclisation yield was determined as 32.7%. For the substance “cyclo(-Arg-D-Glu(NHCH2 CH2 Ph)-Tyr-D-Trp-Trp-)”, the cyclisation yield is given as 14.8%.

As to “Boc-D-Lys(COPh)-Tyr(Br-Z)-D-Trp-Leu-Arg(Tos)-OPac”, the step yield (coupling step) is listed as 57.8%. “cyclo(-Arg-D-Glu(NHCH2 CH2 Ph)-Lys(COPh)-D-Trp-Phe-)” yielded a cyclisation yield of 5.7%. “Boc-Arg(Tos)-D-Glu(Bzlp)-Tyr(Br-Z)-D-Trp-Leu-OPac” came in with a step yield (coupling step) of 100.0%. On to Boc-Y(BrZ)[dW]LR(Tos)-OPac, for which, under “coupling step”, the step yield amounted to 100%. On to “Boc-Arg(Tos)-D-Glu(NHCH2 Nap(1))-Tyr(Br-Z)-D-Trp-Leu-OPac”, for which the step yield (coupling step) is 99.7%.

In turn, “cyclo(-Arg-D-Glu(NHCH2 CH2 Ph)-Tyr-D-Trp-Phe-)” displayed a cyclisation yield of 37.0%. On to “Boc-Arg(Tos)-D-Glu((2)-MeOPhp)-Tyr(Br-Z)-D-Trp-Leu-OPac”, for which, under “coupling step”, the step yield came out at 100.0%. Consider “PEPTIDE1{[Phg].[dR].F.[dA].W}$PEPTIDE1,PEPTIDE1,5:R2-1:R1$$$V2.0”, for which the step yield (late stage modification step) was determined as 17.5%. “Boc-D-Glu(NHCH2 CH2 Ph)-Lys(COPh)-D-Trp-Trp-Arg(Tos)-OPac” had a step yield (coupling step) of 100%. “cyclo(-Arg-D-Glu(NHCH2 CH2 Ph)-Tyr-D-Trp-Leu-)” gave a cyclisation yield of 30.9%. Same read-out and setting: the result for “PEPTIDE1{R.[D-Lys(SO2Nap(1))].Y.[dW].L}$PEPTIDE1,PEPTIDE1,1:R1-5:R2$$$V2.0” reads 30.0%; that for “PEPTIDE1{F.[D-Arg(Tos)].F.[dA].W}$PEPTIDE1,PEPTIDE1,1:R1-5:R2$$$V2.0”, 10.8%. For the substance Boc-Y(BrZ)[dW]WR(Tos)-OPac, the step yield (coupling step) stood at 83.5%. On the same count and under the same terms, the result for Boc-[dY](BrZ)R(Tos)[dW]L-OPac reads 93.7%. The same measure, in the same setting: the figure for “Boc-Arg(Tos)-D-Glu(Php)-Tyr(Br-Z)-D-Trp-Leu-OPac” is 98.2%.

With cyclo([Phe(4-Cl)][dR]F[dA]W), for the setting “late stage modification step”, the step yield came to 21.5%.

Consider “cyclo(-D-Leu-Lys(SO2 Nap(1))-D-Tyr-Arg-D-Trp-)”, for which the cyclisation yield is 52.2%. Turning to “Boc-D-Glu(NHCH2 CH2 Ph)-Lys(Cl-Z)-D-Trp-Leu-Arg(Tos)-OPac”, the step yield (coupling step) was 90.0%.

For the substance “Boc-D-Glu(NHCH2 CH2 Ph)-Lys(COPh)-D-Trp-Leu-OPac”, the step yield (coupling step) is 70.8%.

With Boc-K(ClZ)[dW]LR(Tos)-OPac, the step yield (coupling step) was found to be 85.2%. “PEPTIDE1{F.[D-Arg(Mtr)].F.[dA].W}$PEPTIDE1,PEPTIDE1,1:R1-5:R2$$$V2.0” gave a cyclisation yield of 5.8%. For the setting “coupling step”, “Boc-Lys(SO2 Nap(2))-Tyr(Br-Z)-D-Trp-Leu-OPac” gave a step yield of 100.0%.

Take “Boc-Arg(Tos)-D-Lys(SO2 Nap(1))-Tyr(Br-Z)-D-Trp-Leu-OPac”: where the note is “coupling step”, the step yield came out at 67.4%.

For the setting “coupling step”, “Boc-Arg(Tos)-D-Glu((4)-MeOPhp)-Tyr(Br-Z)-D-Trp-Leu-OPac” returned a step yield of 100.0%. On the same count and under the same terms, the result for “Boc-Arg(Tos)-D-Glu(NHCH2 CH2 Ph)-Lys(COPh)-D-Trp-Leu-OPac” reads 96.3%. The substance “cyclo(-Lys(isopropyl)-D-Glu(NHCH2 CH2 Ph)-Tyr-D-Lys(Nic)-Leu-)” yielded a cyclisation yield of 44.3%.

“Boc-D-Glu(NHCH2 Ph)-Tyr(Br-Z)-D-Trp-Leu-OPac” had a step yield (coupling step) of 61.3%. “Cyclo(-Arg(Tos)-D-Glu(NHCH2 CH2 Ph)-Lys(CONap(1))-D-Trp-Leu-)” showed a step yield (late stage modification step) of 70.0%. The substance “cyclo(-Arg-D-Lys(COCH2 CH2 CH2 Ph)-Tyr-D-Trp-Leu-)” returned a cyclisation yield of 28.7%. As to “Boc-D-Lys(SO2 Nap(2))-Tyr(Br-Z)-D-Trp-Leu-Arg(Tos)-OPac”, the step yield (coupling step) came to 79.8%.

For “cyclo(-Arg-D-Glu(NHCH2 Nap(1))-Tyr-D-Trp-Leu-)”, the cyclisation yield is on record as 56.7%. The substance “Boc-D-Glu(NHCH2 CH2 Ph)-Tyr(Br-Z)-D-Trp-Phe-Arg(Tos)-OPac” registered a step yield (coupling step) of 100%. As to cyclo(F[dR](Tos)F[dF]W), the cyclisation yield is 70.6%. “Boc-D-Glu(NHCH2 CH2 Ph)-Asp(NHCH2 Ph)-D-Trp-Leu-OPac”: under “coupling step”, the step yield was 21.1%.

Where the note is “coupling step”, “Boc-D-Glu((2)-MeOPhp)-Tyr(Br-Z)-D-Trp-Leu-OPac” came in with a step yield of 42.8%.

Substance “Boc-D-Glu((2)-Pyp)-Tyr(Br-Z)-D-Trp-Leu-OPac” had a step yield (coupling step) of 73.1%.

“cyclo(-Arg-D-Glu(NHCH2 CH2 Ph)-Asp (NHCH2 Ph)-D-Trp-Leu-)”: the cyclisation yield came out at 6.72%. Consider “Boc-Arg(Tos)-D-Glu(NHCHPh2)-Tyr(Br-Z)-D-Trp-Leu-OPac”, for which the step yield (coupling step) is given as 100.0%. Regarding “cyclo(-Leu-D-Arg-Lys(SO2 Nap(1)-D-Tyr-Trp-)”, the cyclisation yield is given as 21.1%.
